Values joined by “and” are separate entries in the source; they are usually repeats but may differ in a detail not shown here. Equal values may be shown once. The list shows a part of the results. Single wells; the ratio to wells without odorant was worked out here, and repeats agree poorly.
Legend:
Experiment in all cases: odorant receptor activation (CRE luciferase / Renilla) (fold of no-odor wells); higher = more activation
Settings in all cases: 100 µM
OR52H1 clone 1702 = tested on: OR52H1 clone 1702
OR52I1 clone 1521 = tested on: OR52I1 clone 1521
OR52I2 T132M clone 1324 = tested on: OR52I2 T132M clone 1324
OR52K1 clone 1163 = tested on: OR52K1 clone 1163
OR52K2 clone 1211 = tested on: OR52K2 clone 1211
[1] = tested on: OR52L1 D73N/C125R/C146R/K168T/W282R clone 1116
OR52L2 R169W clone 1117 = tested on: OR52L2 R169W clone 1117
OR52M1 clone 1143 = tested on: OR52M1 clone 1143
OR52N1 clone 1191 = tested on: OR52N1 clone 1191
OR52N2 M228T clone 1569 = tested on: OR52N2 M228T clone 1569
[2] = tested on: OR52N4 T106I/L167R/N218I clone 1127
OR52N5 clone 1238 = tested on: OR52N5 clone 1238
OR52P1 clone 1221 = tested on: OR52P1 clone 1221
[3] = tested on: OR52R1 I129T/N201Y/S245A clone 1705
OR52W1 clone 1234 = tested on: OR52W1 clone 1234
OR56A1 clone 1114 = tested on: OR56A1 clone 1114
OR56A3 M51T clone 1128 = tested on: OR56A3 M51T clone 1128
OR56A4 clone 1724 = tested on: OR56A4 clone 1724
OR56A5 clone 1708 = tested on: OR56A5 clone 1708
OR56B1 C106R clone 1168 = tested on: OR56B1 C106R clone 1168

Structure (SMILES)	odorant receptor activation (OR52H1 clone 1702)	odorant receptor activation (OR52I1 clone 1521)	odorant receptor activation (OR52I2 T132M clone 1324)	odorant receptor activation (OR52K1 clone 1163)	odorant receptor activation (OR52K2 clone 1211)	odorant receptor activation [1]	odorant receptor activation (OR52L2 R169W clone 1117)	odorant receptor activation (OR52M1 clone 1143)	odorant receptor activation (OR52N1 clone 1191)	odorant receptor activation (OR52N2 M228T clone 1569)	odorant receptor activation [2]	odorant receptor activation (OR52N5 clone 1238)	odorant receptor activation (OR52P1 clone 1221)	odorant receptor activation [3]	odorant receptor activation (OR52W1 clone 1234)	odorant receptor activation (OR56A1 clone 1114)	odorant receptor activation (OR56A3 M51T clone 1128)	odorant receptor activation (OR56A4 clone 1724)	odorant receptor activation (OR56A5 clone 1708)	odorant receptor activation (OR56B1 C106R clone 1168)
CC12CCC(CC1)C(C)(C)O2 [cineole]	1.13	0.703	0.836	0.741	0.907	0.893	0.87	0.863	0.815	1.02	0.725	0.593	0.957	0.859	0.856	0.795	0.844	0.868	0.943	0.798
O=CCc1ccccc1 [phenyl acetaldehyde]	0.935	1.19	1.33	1.31	0.939	1.26	1.17	1.31	0.793	1.49	1.31	1.93	0.962	1.02	1.06	1.47	1.29	0.987	0.964	1.49
CCCCCCOC(=O)CCC [hexyl butyrate]	1.03	1.12 and 1.03	1.06 and 0.907	1.16	1.27	0.706	1.34	0.885	1.04	0.78	1.26	0.878	0.777	0.638	1.08	0.817	1.25	0.832	0.53	1.21

Source: the odorant receptor screen of Mainland et al. (2015)
